# In patent US20120184583A1, “MODULATORS OF ATP-BINDING CASSETTE TRANSPORTERS” (VERTEX PHARMACEUTICALS INCORPORATED, priority 2003, published 2012):
# The chains behind the UniProt entries cited, without tags or fusion partners. Where a name states a change or a piece, a line headed by the entry shows the natural chain unless it says otherwise. A line that says so, or that is headed by a name, gives the form on record, which may keep a tag or linker.
# UniProt P13569, with tags, fused parts or gaps DEL508-508: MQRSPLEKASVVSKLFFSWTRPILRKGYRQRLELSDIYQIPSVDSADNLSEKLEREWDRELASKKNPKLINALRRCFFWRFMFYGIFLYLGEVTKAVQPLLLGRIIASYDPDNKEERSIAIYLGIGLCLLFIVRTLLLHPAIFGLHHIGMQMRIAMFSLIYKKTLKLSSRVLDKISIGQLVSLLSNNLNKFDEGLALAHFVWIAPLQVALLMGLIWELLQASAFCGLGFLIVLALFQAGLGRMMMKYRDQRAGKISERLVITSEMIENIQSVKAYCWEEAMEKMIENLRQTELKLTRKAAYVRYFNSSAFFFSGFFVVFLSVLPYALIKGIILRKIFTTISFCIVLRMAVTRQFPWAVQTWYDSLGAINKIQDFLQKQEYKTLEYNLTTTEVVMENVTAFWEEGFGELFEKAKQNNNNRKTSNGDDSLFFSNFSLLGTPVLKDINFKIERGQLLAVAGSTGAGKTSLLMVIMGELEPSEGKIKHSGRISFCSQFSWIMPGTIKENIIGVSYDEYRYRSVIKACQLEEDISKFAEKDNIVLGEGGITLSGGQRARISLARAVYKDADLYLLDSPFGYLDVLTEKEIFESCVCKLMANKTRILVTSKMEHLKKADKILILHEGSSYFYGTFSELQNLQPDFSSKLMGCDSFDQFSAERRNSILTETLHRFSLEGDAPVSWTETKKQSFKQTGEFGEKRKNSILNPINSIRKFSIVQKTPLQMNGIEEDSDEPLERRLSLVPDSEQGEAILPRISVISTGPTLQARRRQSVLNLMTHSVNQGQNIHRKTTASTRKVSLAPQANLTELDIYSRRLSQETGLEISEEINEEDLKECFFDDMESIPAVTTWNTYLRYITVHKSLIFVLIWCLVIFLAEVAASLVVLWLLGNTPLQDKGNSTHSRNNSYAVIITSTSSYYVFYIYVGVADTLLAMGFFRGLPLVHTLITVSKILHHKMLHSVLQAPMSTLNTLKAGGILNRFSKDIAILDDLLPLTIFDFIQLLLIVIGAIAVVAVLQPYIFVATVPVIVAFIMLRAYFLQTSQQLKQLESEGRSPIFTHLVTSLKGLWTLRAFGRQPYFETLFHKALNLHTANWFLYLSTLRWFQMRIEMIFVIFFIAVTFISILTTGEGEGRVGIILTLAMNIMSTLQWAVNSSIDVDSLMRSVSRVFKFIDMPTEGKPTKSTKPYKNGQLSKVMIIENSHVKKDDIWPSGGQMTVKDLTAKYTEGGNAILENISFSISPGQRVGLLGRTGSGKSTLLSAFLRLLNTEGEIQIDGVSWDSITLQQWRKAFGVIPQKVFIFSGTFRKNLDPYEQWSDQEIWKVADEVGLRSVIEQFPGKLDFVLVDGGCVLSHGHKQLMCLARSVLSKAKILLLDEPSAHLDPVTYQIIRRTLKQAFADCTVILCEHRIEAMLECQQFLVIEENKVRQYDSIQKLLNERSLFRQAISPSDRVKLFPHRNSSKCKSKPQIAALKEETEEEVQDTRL
# At least one structure is not confirmed: it was looked up by name or label, or the drawing left a doubt.
# Biological target: T1, ΔF508-CFTR expressed in FRT epithelial cells (Homo sapiens, UniProt P13569, DEL508-508)
# T1 construct: expressed in transfected cells; host or cells: Fisher rat epithelial (FRT) cells, vector-infected
# Assay: Ussing chamber assay, short-circuit current in FRT epithelia
# Format: cell-based
# Conditions: forskolin 10 μM after nystatin permeabilization, n=30
smiles,measurement,value
C=C[C@@]1(C)CC(=O)[C@]2(O)[C@@]3(C)[C@@H](O)CCC(C)(C)[C@@H]3[C@H](O)[C@H](OC(C)=O)[C@@]2(C)O1 [forskolin],ISC activated,4.54±1.3 μA/cm^2
